Holding throughout (assay type): biochemical
Series [1] deals with Click Beetle Red Luciferase. The series can be described thus: Spectral scan of near-IR substrates with purified enzyme. Conditions: substrate 1 mM in Bright-Glo Assay buffer + 1 mM ATP.
The test system of a further series is UltraGlo® luciferase. The series is described as above. The note with it: substrate 1 mM in Bright-Glo Assay buffer + 1 mM ATP.
Series [2] is described as follows: Spectral measurements of purified enzymes. Conditions: purified enzyme; 20 μM PBI-4739; Tecan-M1000 spectral scan.
Series [3] is described as follows: Spectral measurements of purified enzymes. Conditions: purified enzyme; 20 μM PBI-4813; Tecan-M1000 spectral scan.

Regarding `O=C(O)C1CSC(c2nc3ccc4cc(O)ccc4c3s2)=N1` (stereo not shown) [PBI-4739], in series [1], the “spectral maximum with Click Beetle Red Luciferase” value is given as 760 nm. Further, the “spectral maximum with UltraGlo® luciferase” value with UltraGlo® luciferase turned out to be 660 nm.

Regarding `Nc1ccc2c(ccc3nc(C4=NC(C(=O)O)CS4)sc32)c1` (stereo not shown) [PBI-4813], the “spectral maximum with Click Beetle Red Luciferase” value in series [1] amounted to 655 nm. In addition, the “spectral maximum with UltraGlo® luciferase” value in the series on UltraGlo® luciferase turned out to be 670 nm.

B1: ATG 1240: CBR variant R334S and G351R (SEQ ID NO: 2) (protein)
chain: MVKREKNVIYGPEPLHPLEDLTAGEMLFRALRKHSHLPQALVDVVGDESLSYKEFFEATVLLAQSLHNCGYKMNDVVSICAENNTRFFIPVIAAWYIGMIVAPVNESYIPDELCKVMGISKPQIVFTTKNILNKVLEVQSRTNFIKRIIILDTVENIHGCESLPNFISRYSDGNIANFKPLHFDPVEQVAAILCSSGTTGLPKGVMQTHQNICVRLIHALDPRYGTQLIPGVTVLVYLPFFHAFGFHITLGYFMVGLRVIMFRRFDQEAFLKAIQDYEVRSVINVPSVILFLSKSPLVDKYDLSSLRELCCGAAPLAKEVAEVAAKRLNLPGISCGFGLTESTSAIIQTLRDEFKSGSLGRVTPLMAAKIADRETGKALGPNQVGELCIKGPMVSKGYVNNVEATKEAIDDDGWLHSGDFGYYDEDEHFYVVDRYKELIKYKGSQVAPAELEEILLKNPCIRDVAVVGIPDLEAGELPSAFVVKQPGTEITAKEVYDYLAERVSHTKYLRGGVRFVDSIPRNVTGKITRKELLKQLLVKAGGV
Turning to B1, the “spectral max using PBI-4739 as substrate” value in series [2] is recorded as “about 750 nm”. In addition, the “spectral max using PBI-4813 as substrate” value in series [3] is recorded as “about 725 nm”.

B2: ATG 1230: CBR variant I389F, S444R, G251S (SEQ ID NO: 3) (protein)
chain: MVKREKNVIYGPEPLHPLEDLTAGEMLFRALRKHSHLPQALVDVVGDESLSYKEFFEATVLLAQSLHNCGYKMNDVVSICAENNTRFFIPVIAAWYIGMIVAPVNESYIPDELCKVMGISKPQIVFTTKNILNKVLEVQSRTNFIKRIIILDTVENIHGCESLPNFISRYSDGNIANFKPLHFDPVEQVAAILCSSGTTGLPKGVMQTHQNICVRLIHALDPRYGTQLIPGVTVLVYLPFFHAFGFHITLSYFMVGLRVIMFRRFDQEAFLKAIQDYEVRSVINVPSVILFLSKSPLVDKYDLSSLRELCCGAAPLAKEVAEVAAKRLNLPGIRCGFGLTESTSAIIQTLGDEFKSGSLGRVTPLMAAKIADRETGKALGPNQVGELCFKGPMVSKGYVNNVEATKEAIDDDGWLHSGDFGYYDEDEHFYVVDRYKELIKYKGRQVAPAELEEILLKNPCIRDVAVVGIPDLEAGELPSAFVVKQPGTEITAKEVYDYLAERVSHTKYLRGGVRFVDSIPRNVTGKITRKELLKQLLVKAGGV
In the case of B2, in series [2], the “spectral max using PBI-4739 as substrate” value is listed as “about 760 nm”. Besides, the “spectral max using PBI-4813 as substrate” value in series [3] is reported as “about 650 nm”.

B3: CBR: click beetle red luciferase polypeptide of SEQ ID NO: 1 (protein)
chain: MVKREKNVIYGPEPLHPLEDLTAGEMLFRALRKHSHLPQALVDVVGDESLSYKEFFEATVLLAQSLHNCGYKMNDVVSICAENNTRFFIPVIAAWYIGMIVAPVNESYIPDELCKVMGISKPQIVFTTKNILNKVLEVQSRTNFIKRIIILDTVENIHGCESLPNFISRYSDGNIANFKPLHFDPVEQVAAILCSSGTTGLPKGVMQTHQNICVRLIHALDPRYGTQLIPGVTVLVYLPFFHAFGFHITLGYFMVGLRVIMFRRFDQEAFLKAIQDYEVRSVINVPSVILFLSKSPLVDKYDLSSLRELCCGAAPLAKEVAEVAAKRLNLPGIRCGFGLTESTSAIIQTLGDEFKSGSLGRVTPLMAAKIADRETGKALGPNQVGELCIKGPMVSKGYVNNVEATKEAIDDDGWLHSGDFGYYDEDEHFYVVDRYKELIKYKGSQVAPAELEEILLKNPCIRDVAVVGIPDLEAGELPSAFVVKQPGTEITAKEVYDYLAERVSHTKYLRGGVRFVDSIPRNVTGKITRKELLKQLLVKAGGV
Take B3: the “spectral max using PBI-4739 as substrate” value in series [2] is “about 760 nm”. The “spectral max using PBI-4813 as substrate” value in series [3] is “about 650 nm”.

The values are drawn from patent US12460245B2, “Luciferase sequences utilizing infrared-emitting substrates to produce enhanced luminescence” (Promega Corporation, priority 2014, dated 2025).
